These are yes or no findings as the source states them, for the method shown. Some results given as binding are weak or reduced against the parent protein; the word gives no strength.
Key:
CD7 (human) [1] = biological target: CD7 (human) (UniProt P09564); experiment: flow cytometry; supernatant of scFv-transduced Jurkat cells on MOLT-4 (CD7+) and OP-1 (CD7-) cells
CD7 (human) [2] = biological target: CD7 (human) (UniProt P09564); experiment: flow cytometry; soluble scFv on CD7+ MOLT-4 and CD7- OP-1 cells, detected with goat anti-mouse F(ab')2

Sequences of proteins named here, by UniProt entry; tags and fusion partners are left off. Residues count along the entry.
UniProt P09564, residues 26-240: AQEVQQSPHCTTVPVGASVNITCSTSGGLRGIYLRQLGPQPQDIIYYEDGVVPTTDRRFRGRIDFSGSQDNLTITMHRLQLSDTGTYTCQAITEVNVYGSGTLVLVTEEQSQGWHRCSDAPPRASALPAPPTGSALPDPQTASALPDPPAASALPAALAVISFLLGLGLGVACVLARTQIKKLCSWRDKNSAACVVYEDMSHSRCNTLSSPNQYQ

binding (CD7 (human) [1]): binds | binding (CD7 (human) [2]): binds
B1: soluble anti-CD7 scFv (scFv of the anti-CD7 monoclonal antibody TH69) (scFv)
scFv: AAYKDIQMTQTTSSLSASLGDRVTISCSASQGISNYLNWYQQKPDGTVKLLIYYTSSLHSGVPSRFSGSGSGTDYSLTISNLEPEDIATYYCQQYSKLPYTFGGGTKLEIKRGGGGSGGGGSGGGGSGGGGSEVQLVESGGGLVKPGGSLKLSCAASGLTFSSYAMSWVRQTPEKRLEWVASISSGGFTYYPDSVKGRFTISRDNARNILYLQMSSLRSEDTAMYYCARDEVRGYLDVWGAGTTVTVSS

Source: US20240182567A1
